Assay results reported in article PMC10954545.

T1: YFP–RAB-A5c (A. thaliana) (UniProt P28187)
T1 sequence: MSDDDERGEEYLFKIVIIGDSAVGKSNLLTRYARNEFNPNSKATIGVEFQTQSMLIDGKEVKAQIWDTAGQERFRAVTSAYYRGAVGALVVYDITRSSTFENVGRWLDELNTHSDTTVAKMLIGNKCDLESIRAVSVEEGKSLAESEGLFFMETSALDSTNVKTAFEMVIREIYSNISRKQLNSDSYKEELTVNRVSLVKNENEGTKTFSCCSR


Molecular target: T1, YFP–RAB-A5c (A. thaliana)
Assay: affinity purification with mass spectrometry; co-immunoprecipitation against YFP–RAB-A5c from total microsomes of Arabidopsis roots; in-gel trypsin digest, label-free quantification (SinQ), three biological replicates; compared with YFP–RAB-A2a, YFP–RAB-G3f and Col-0

binding	Molecule
binds	RECEPTOR-LIKE PROTEIN 4-LIKE1 (RLP4-L1) (A. thaliana (endogenous in roots))
binds	RECEPTOR-LIKE PROTEIN4 (RLP4) (receptor, UniProt F4HWL3 23-626) RPAPYALRISCGARKNVRTPPTYALWFKDIAYTGGVPANATTPTYITPPLKTLRYFPISEGPNNCYNIVRVPKGHYSVRIFFGLVDQPSFDKEPLFDISIEGTQISSLKSGWSSQDDQVFAEALIFLLGGTATICFHSTGHGDPAILSIEILQVDDKAYSFGEGWGQGVILRTATRLTCGTGKSRFDEDYRGDHWGGDRFWNRMRSFGKSADSPRSTEETIKKASVSPNFYPEGLYQSALVSTDDQPDLTYSLDVEPNRNYSVWLHFAEIDNTITAEGKRVFDVVINGDTFFEDVDIIKMSGGRYAALVLNATVTVSGRTLTVVLQPKAGGHAIINAIEVFEIITAEFKTLRDEVSALQKMKKALGLPSRFGWNGDPCVPPQHPWSGANCQLDKNTSRWFIDGLDLDNQGLKGFLPNDISKLKHLQSINLSENNIRGGIPASLGSVTSLEVLDLSYNSFNGSIPETLGELTSLRILNLNGNSLSGKVPAAVGGRLLHRASFNFTDNAGLCGIPGLPACGPHLSSGAKIGIAFGVSLAFLLIVACAMIWWKRRQNILRAQQIAARGAPYAKKRTHVSHDIQMSRHGHNNHGQARTAVENGPSLLS

These are yes or no findings as the source states them, for the method shown. In cells and extracts the contact can be indirect. A yes stands for co-enrichment or nearness to the bait. Other partners may have been found. Tags and fused reporters may be left off the sequences shown.
